A short description of the test: qHTS Assay to Find Inhibitors of Chronic Active B-Cell Receptor Signaling. As to conditions: ABC-DLBCL IkBa-CBG/CBR reporter, luminescence ratio (green luciferase fused to IkBa over red control in TMD8 lymphoma cells), 4 h. The procedure, abridged: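 Doxycycline induced both beetle luciferases in TMD8 lymphoma cells; IKK-driven degradation limits the IkappaBalpha-fused green signal, while red luminescence normalises for cell number and nonspecific effects. Compounds tested up to 46 uM, 4 hrs.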
For orientation: Quantitative high-throughput screening tests each substance at several concentrations.

The mark [1] stands for this setting: measured here: CBR red luminescence, cell number.
Setting [2] is: measured here: IkBa-CBG green luminescence.

Values joined by “and” are separate entries in the source; they are usually repeats but may differ in a detail not shown here. Equal values may be shown once. The list shows a part of the results. The main result of the screen is listed elsewhere. These columns were measured beside it and carry no call. Compounds called inactive in the main read-out are mostly missing here. The note in brackets gives the kind of curve behind each potency; many fits are weak.

By AC50 is commonly meant the concentration giving half of the maximal activity seen. Turning to `C/C(NC(=O)c1cccs1)=C1\C(=O)C[C@@H]2[C@H]1C2(C)C`, the AC50 was 15.8 µM [rising, partial curve] under setting [1] and 17.8 µM [falling, single point] under setting [2].
For `COc1ccc(CC(=O)N2CCN(c3ccccc3OC)CC2)cc1OC`, the AC50 under setting [1] is 35.5 µM [rising, single point].
Same read-out and setting: next, `COc1ccc(C(=O)N2CCN(S(=O)(=O)c3ccc4c(c3)OCCO4)CC2)cc1OC`: 2.06 µM [rising, partial curve, poor fit].
In the case of `CC(C)(CO)N1CCN(C(=S)Nc2ccccc2)CC1`, under setting [1], the AC50 is 35.5 µM [rising, single point].
As to `CC(C)CCOCc1nc2sc3c(c2c(=O)[nH]1)CCC(C)C3` (stereo not given), the AC50 under setting [1] is 10.3 µM [rising, partial curve].
In the case of `C[C@@H]1CC[C@]2(O[C@@H](CCO)C[C@@H](O)[C@@H]2O)O1`, under setting [1], the AC50 is 12.6 µM [rising, single point].
Consider `O=C(NO)c1ccc(OC(F)F)cc1`, for which the AC50 under setting [1] is 6.31 µM [falling, single point].
In the case of `Cc1cnc(NC(=O)CSc2nnc(-c3ccccc3)o2)s1`, the AC50 under setting [1] is 6.51 µM [falling, partial curve].
For the compound `COc1cc(/C=C2\SC(=Nc3ccccc3)N(CCc3c[nH]c4ccccc34)C2=O)ccc1OC(C)C(=O)O` (stereo not given), the AC50 under setting [1] is 0.517 µM [falling, partial curve, poor fit].
As to `COCCN(CC(=O)Nc1ccccc1C(F)(F)F)C(=O)/C=C/c1ccc2ccccc2n1`, the AC50 under setting [1] is 0.326 µM [falling, full curve, poor fit].
In the case of `Cc1ccccc1-n1nc(-c2ccc(N)cc2)cc1N`, under setting [1], the AC50 was 3.26 µM [rising, partial curve, poor fit].
As for `O=S1(=O)N=C(N(CCO)/N=C/c2ccccc2)c2ccccc21`, under setting [1], the AC50 is 1 µM [falling, full curve, poor fit].
For `Cc1ccc(-c2ccc(/C=C(\C#N)C(N)=S)n2C)cc1`, the AC50 under setting [1] is 14.1 µM [falling, single point].
On to `O=C(Nc1cccc(NC(=S)NC(=O)c2cccs2)c1)c1ccccc1`, for which, under setting [1], the AC50 is 0.58 µM [falling, full curve, poor fit].
Regarding `O=C(Cn1sc2ccccc2c1=O)NC12CC3CC(CC(C3)C1)C2`, under setting [1], the AC50 was 14.6 µM [rising, single point].
As to `CC(C)(C)Nc1ncnc2c1cnn2-c1ccccc1`, the AC50 under setting [1] was 29.1 µM [falling, single point].
Still for that read-out and setting: next, `COc1ccc(OCCn2cnc3ccccc32)cc1`: 7.94 µM [rising, partial curve].
For `COc1cccc(C(=O)Nc2ccccc2N2CCCC2)c1`, under setting [1], the AC50 was 29.1 µM [rising, single point].
Turning to `CC1CCC(C(C)C)C(OC(=O)Cn2c(-c3ccccc3)[n+](C)c3ccccc32)C1` (stereo not given), the AC50 is 11.6 µM [falling, partial curve] and 10.3 µM [falling, partial curve] under setting [1]; 6.51 µM [rising, partial curve, poor fit] and 16.4 µM [rising, partial curve, poor fit] under setting [2].
As to `CCCc1nc2oc3c(NCC4CCCO4)ncnc3c2c2c1COC(C)(C)C2` (stereo not given), under setting [1], the AC50 was 6.31 µM [rising, partial curve, poor fit].
With `c1ccc(N(c2ccccc2)c2nc(N3CCOCC3)nc(N3CCOCC3)n2)cc1`, the AC50 under setting [1] was 4.47 µM [rising, full curve, poor fit].
For `O=C(CC1CCCCC1)NC1CCCC1`, the AC50 under setting [1] was 20.6 µM [rising, partial curve, poor fit].
On the same count and under the same terms, under `CC(=O)Nc1ccc(C(=O)COC(=O)c2ccco2)c(F)c1` stands 32.6 µM [rising, single point]; under `CCCc1cc(=O)[nH]c(SCCOc2ccc(OCC)cc2)n1`, 23.1 µM [rising, single point]; under `O=C(/C=C/c1ccc(Cl)c(Cl)c1)NCc1ccco1`, 6.51 µM [rising, partial curve, poor fit].
Turning to `CCC(C)Nc1nc(Cl)nc(N(C#N)CN2C(=O)c3ccccc3S2(=O)=O)n1` (stereo not given), the AC50 under setting [1] was 8.91 µM [rising, partial curve, poor fit].
Turning to `COc1cc(C(=O)Nc2cc(-c3cn4cccnc4n3)ccc2C)cc(OC)c1OC`, the AC50 under setting [1] was 28.2 µM [rising, single point].
With `Cc1ccc(OC(=O)c2oc3ccc(F)cc3c2C)c(C)c1`, under setting [1], the AC50 was 35.5 µM [rising, single point].
For the compound `O=C(Nc1ncccn1)c1cccs1`, the AC50 under setting [1] is 15.8 µM [falling, single point].
Turning to `CCOC(=O)CN1C(=O)C2(OCCCO2)c2ccccc21`, the AC50 under setting [1] was 29.1 µM [rising, partial curve, poor fit].
For the compound `Cc1ncsc1C(=O)Nc1nc2c(s1)CCCC2`, the AC50 under setting [1] was 6.31 µM [falling, partial curve].
In the case of `CC(C)(C)c1ccc(S(=O)(=O)N2CCN(CC(=O)NC(=O)NC3CCCCC3)CC2)cc1`, the AC50 under setting [1] was 7.31 µM [rising, partial curve, poor fit].
As for `COc1ccc(NC(=S)c2ccc3ccccc3n2)cc1`, the AC50 under setting [1] is 20 µM [rising, single point].
In the case of `Cc1cc(/C=C\c2ccccc2)nc2ccccc12`, the AC50 under setting [1] is 0.355 µM [rising, full curve, poor fit].
`Cc1ccc(-c2nn(-c3ccccc3)cc2C=O)o1`: the AC50 under setting [1] was 1.41 µM [rising, partial curve, poor fit].
Consider `Cc1cccc(NC(=O)Cc2coc3ccc4ccccc4c23)n1`, for which, under setting [1], the AC50 was 23.1 µM [falling, partial curve, poor fit].
Take `Cc1c(/C(O)=C2/C(=O)C(=O)N(CCN3CCOCC3)C2c2ccccn2)cnn1-c1ccccc1` (stereo not given): the AC50 under setting [1] was 4.47 µM [rising, full curve].
Consider `Cc1ccc(Cl)cc1NC(=O)c1sc2nc(-c3ccccc3)cn2c1C`, for which the AC50 under setting [1] is 0.631 µM [rising, full curve, poor fit].
On to `OCC#CCSc1nnc(-c2cccc3ccccc23)o1`, for which the AC50 under setting [1] is 13 µM [rising, partial curve].
In the case of `CCOC(=O)c1ccc(NC(=O)c2cn(CCC#N)nc2-c2ccc3c(c2)OCCO3)cc1`, under setting [1], the AC50 is 20.6 µM [falling, single point].
For `Cc1cc2c(=O)n(Cc3ccco3)c(SCC(=O)N3CCCc4ccccc43)nc2s1`, the AC50 by setting is: under setting [1], 20.6 µM [falling, single point]; under setting [2], 16.4 µM [rising, partial curve, poor fit].
Consider `Cc1ccc(NC(=O)c2cc(NC(=O)c3ccco3)ccc2N2CCCCC2)cc1`, for which, under setting [1], the AC50 was 1.12 µM [falling, full curve].
Take `O=C(Nc1nnc(SCc2ccccn2)s1)C1CC(=O)N(c2ccc(F)cc2)C1` (stereo not given): under setting [1], the AC50 is 20 µM [falling, single point].
With `COc1ccc(NC(C)=O)cc1S(=O)(=O)NC(C)c1ccc(-n2ccnc2)cc1` (stereo not given), the AC50 under setting [1] was 29.1 µM [rising, single point].
Turning to `Cc1ccc(C(=O)Nc2ncc3c(Cl)cccc3n2)cc1`, under setting [1], the AC50 was 8.91 µM [falling, partial curve, poor fit].
Turning to `O=C(NC(=S)NCc1ccccc1)c1cccs1`, the half-maximal activity concentration (AC50) under setting [1] was 3.16 µM [rising, partial curve, poor fit].
The same measure, in the same setting: next, `Cc1cc(C)c(S(=O)(=O)N2CCC(C(=O)OCc3c(C)noc3C)CC2)c(C)c1`: 1.64 µM [rising, full curve, poor fit]; `CC(C)CN(C(=O)c1ccc(=O)n(C)n1)c1nc2ccccc2s1`: 0.291 µM [rising, full curve, poor fit].
Turning to `O=C(N/N=C/c1ccc2c(c1)OCO2)c1cc(-c2ccco2)nc2ccccc12`, the AC50 under setting [1] is 29.1 µM [rising, single point].
Same read-out and setting: next, `CCN(CC)S(=O)(=O)c1cccc(NC(=O)c2ccc(Br)cc2)c1`: 8.91 µM [falling, partial curve].
Same read-out and setting: under `O=C(O)c1ccccc1NS(=O)(=O)c1ccc2c3c(cccc13)C(=O)N2` stands 2.51 µM [falling, partial curve, poor fit]; under `COc1ccc2[nH]c(C)c(CCN(Cc3cccs3)C(=S)Nc3ccc(F)cc3)c2c1`, 18.4 µM [falling, single point]; under `Cc1csc(NC(=O)CSc2nc(=O)cc(N)n2-c2ccc(F)cc2)n1`, 10 µM [falling, partial curve, poor fit].
Turning to `C=CCNC(=O)c1onc(CSc2ccccc2F)c1C(=O)O`, under setting [1], the AC50 is 10 µM [falling, partial curve].
As to `CCCCCCOC1(c2ccccc2)OC(=O)c2ccccc21` (stereo not given), the AC50 under setting [1] is 17.8 µM [rising, single point].
Turning to `COc1ccc2[nH]c3c(c2c1)CCN1C(=O)C(CC(=O)NC(C)(C)C)C[C@H](C(=O)N2CCOCC2)[C@@]31CCC1CCCC1` (stereo not given in full), the AC50 under setting [1] is 32.6 µM [falling, single point].
For `Fc1ccc(NCc2nnc(SCc3nnc(-c4ccccc4)o3)n2CC2CCCO2)cc1` (stereo not given), under setting [1], the AC50 is 6.51 µM [rising, single point].
As to `CCOc1ccc(NC(=S)/C(=C(\[O-])c2ccc(C)c([N+](=O)[O-])c2)[n+]2ccccc2)cc1`, under setting [1], the AC50 is 29.1 µM [rising, single point].
Take `Cc1cccc(-n2nnc(C(=O)N3CCc4ccccc4C3)c2N)c1`: the AC50 under setting [1] was 5.01 µM [falling, full curve, poor fit].
On the same count and under the same terms, under `CCNC(=S)N(CCc1c(C)[nH]c2ccc(C)cc12)Cc1cc(OC)c(OC)c(OC)c1` stands 2.06 µM [rising, partial curve, poor fit]; under `O=C1C(Cl)=C(NS(=O)(=O)c2ccc([N+](=O)[O-])cc2)C(=O)c2ccccc21`, 5.62 µM [falling, partial curve].
Consider `COC(=O)c1ccc(CNC(=O)COC(=O)/C=C/c2ccc(OC)c(OC)c2)cc1`, for which, under setting [1], the AC50 is 0.164 µM [rising, partial curve, poor fit].
